The other results are listed elsewhere or left out.

The target in this test is T1, OsSMF1 (Oryza sativa, UniProt Q6ZLB0 1-436).
T1 sequence: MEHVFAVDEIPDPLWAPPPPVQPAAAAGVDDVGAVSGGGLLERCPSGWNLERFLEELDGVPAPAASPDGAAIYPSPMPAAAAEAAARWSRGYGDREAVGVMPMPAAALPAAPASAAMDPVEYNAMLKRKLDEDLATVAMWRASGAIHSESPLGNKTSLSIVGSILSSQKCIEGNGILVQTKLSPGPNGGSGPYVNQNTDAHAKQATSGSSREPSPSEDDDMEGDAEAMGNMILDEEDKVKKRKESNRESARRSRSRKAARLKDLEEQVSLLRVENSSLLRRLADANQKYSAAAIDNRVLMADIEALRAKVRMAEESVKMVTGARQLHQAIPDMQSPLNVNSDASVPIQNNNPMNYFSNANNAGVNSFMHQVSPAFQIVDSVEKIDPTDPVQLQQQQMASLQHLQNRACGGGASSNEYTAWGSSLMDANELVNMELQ
Nature of the test: protein-binding microarray (RPBM); PBS, 2% BSA, 51.3 ng/ul salmon testes DNA, 50 uM zinc acetate, 200 nM TF, 25 C, 1 h; high values mean tight binding. The conditions noted are these: protein: recombinant; tags: N-terminal polyhistidine and DsRed monomer fusion (pET32a); chain copies: 2; label: CyDye5-dUTP incorporated in the synthesized complementary strand; 3' TTTTT single-stranded linker to array surface; dsDNA, one strand shown. A digest of the protocol: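 Binding signal here means per-feature fluorescence intensity in arbitrary units. The values were read on an Axon 4000B scanner after a custom Agilent array, double-stranded by primer extension with Cy5-dUTP, was incubated with 200 nM protein at 25 °C for 1 h in PBS with 2% BSA, salmon testes DNA and 50 µM zinc acetate, then washed. The proteins were transcription factors with an N-terminal polyhistidine tag and DsRed, expressed in E. coli BL21-CodonPlus and purified on Ni–NTA.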
Regarding “CCCAACACGGCCCATGGAGGCATCCACGTTTTGAACGAGCCGGAGTCACCTAGTGCAG”, the binding signal is 3720 fluorescence intensity (a.u.).
Consider “AACCCTAGCCACTCTCGTTTCATTGGTCTGACTTATTGGGCGGAGTCACCTAGTGCAG”, for which the binding signal is 14700 fluorescence intensity (a.u.).
In the case of “CCGCTGGCGGCGGAGAGTACAACGTGTACATTTTGCCCCTCGGAGTCACCTAGTGCAG” it was 3660 fluorescence intensity (a.u.); in that of “GACTTCTTCCCGGCCTTTTAGCGTGCGTGGCGCTCAACACCGGAGTCACCTAGTGCAG”, 10000 fluorescence intensity (a.u.).
“GCAAACTGAACATACTCGTATATCGAACTGTCATAACTTCCGGAGTCACCTAGTGCAG”: the binding signal was 3140 fluorescence intensity (a.u.).
As to “GAGCTCAAAGCGGCGGTGCACGTGGCGAGGCAGAGCAAAGCGGAGTCACCTAGTGCAG”, the binding signal was 3620 fluorescence intensity (a.u.).
In the case of “CGAACACAGCCTAGGATGCCACGTCAGTGAAACCACCCATCGGAGTCACCTAGTGCAG” it was 26600 fluorescence intensity (a.u.); in that of “TCGCACACGCGCTCACGGTACGCCGCCGCCTCGGTCCTCCCGGAGTCACCTAGTGCAG”, 12300 fluorescence intensity (a.u.).
The same measure for “CTGCAGCAGCCGCAGCCGCCGCCGACGCGGCGGCTCTCTCCGGAGTCACCTAGTGCAG”: 3360 fluorescence intensity (a.u.); for “ATCACGTGTGCCACGTGTCCTTTGACCAGCGACACGTGTCCGGAGTCACCTAGTGCAG”: 25800 fluorescence intensity (a.u.).
In the case of “CGCCCGCACGTACGTGTCGCGAACTCGCGCCACGGCCGCGCGGAGTCACCTAGTGCAG” it was 4720 fluorescence intensity (a.u.); in that of “CACACACAGTAGCTCGTGCTGACTAAGCGGCTGACCGGTCCGGAGTCACCTAGTGCAG”, 11800 fluorescence intensity (a.u.); in that of “GGCCGTTTGCAAGGCGTGGCTGGTTGGGTGGATGGATGGACGGAGTCACCTAGTGCAG”, 3380 fluorescence intensity (a.u.).
For the sequence “TGTTTCAAATGCCACATAAGCGTCACGTCAACCCCACAAACGGAGTCACCTAGTGCAG”, the binding signal was 8120 fluorescence intensity (a.u.).
Turning to “AGCTAGCTCGTCTCCTCGTCCGCCTCGCGCCTGCTGGAGACGGAGTCACCTAGTGCAG”, the binding signal was 3300 fluorescence intensity (a.u.).
For “ACCAGCCTTTACAAAACCACGTGGTTACCTCATGATTTACCGGAGTCACCTAGTGCAG”, the binding signal was 4580 fluorescence intensity (a.u.).
On to “CTTCTTCTTTTGCGTGGGGAGCGATTAACACGCGTGCGTCCGGAGTCACCTAGTGCAG”, for which the binding signal is 4000 fluorescence intensity (a.u.).
In the case of “CAAACCTTGCAGTGTGCAACTATCAGCTGTTGTTTTACAGCGGAGTCACCTAGTGCAG”, the binding signal is 3810 fluorescence intensity (a.u.).
Regarding “ACAGGTGCACGCACACGTGCCGCATCAACCAGACAGCCACCGGAGTCACCTAGTGCAG”, the binding signal was 3360 fluorescence intensity (a.u.).
The same measure for “AGTTTCTTGCTCCCCACTCCCGCGCCGCGTCACGTCACGCCGGAGTCACCTAGTGCAG”: 9780 fluorescence intensity (a.u.); for “GTTTGCCCACACAGCCGCCGCTTCCTCTCCCAGGCCGCGTCGGAGTCACCTAGTGCAG”: 12900 fluorescence intensity (a.u.).
The same measure for “CCTCCTCCCGGCTCGAGATCCGTGGCCACGACGCGTGGTGCGGAGTCACCTAGTGCAG”: 5300 fluorescence intensity (a.u.); for “TCTTCGGGAGGAGGCGCGGGGTCGGGCGGCGCCGATGGGGCGGAGTCACCTAGTGCAG”: 3210 fluorescence intensity (a.u.).
Take “GCTGGCATATGTATCCCTTACACATCATCACCCAGTGTTCCGGAGTCACCTAGTGCAG”: the binding signal was 12900 fluorescence intensity (a.u.).
Turning to “TTGGTCGCATTTCGGGTGGTGGTGGTGGTGGTGGTGGTGGCGGAGTCACCTAGTGCAG”, the binding signal was 3870 fluorescence intensity (a.u.).
For “GCTCCATCCCTCTCTCTCGCCACGCGCTGCCGTCGTCGGCCGGAGTCACCTAGTGCAG”, the binding signal was 3540 fluorescence intensity (a.u.).
As for “TCGTAGAGTCGTATGGTGGCCAGCTTGAGGCCCTGACGCACGGAGTCACCTAGTGCAG”, the binding signal is 17500 fluorescence intensity (a.u.).
Turning to “TGCGACCAGCCCATTAACTTGTCCAGGACCAGCAACGCGGCGGAGTCACCTAGTGCAG”, the binding signal was 3390 fluorescence intensity (a.u.).
Take “AATAGGAAATAAACATTACTGAGAAAAGGGCTCATGTTGGCGGAGTCACCTAGTGCAG”: the binding signal is 29300 fluorescence intensity (a.u.).
Turning to “CCTCGTGTCCCTCGTCATCAAACCCCACCGCCACAAGGTACGGAGTCACCTAGTGCAG”, the binding signal was 14100 fluorescence intensity (a.u.).
The same measure for “TAATGGAGTATGTGGTGGAGACACGTGGCAGTGTGACCGGCGGAGTCACCTAGTGCAG”: 25200 fluorescence intensity (a.u.); for “TAAGCTAACCTTGTACTAAGATGTGACACATCCAAGTACACGGAGTCACCTAGTGCAG”: 3630 fluorescence intensity (a.u.).
For “CGCACGCACCCACACCAAACCAAACTCTACTCGATCTCCACGGAGTCACCTAGTGCAG”, the binding signal was 3610 fluorescence intensity (a.u.).
“CTACTGACACGTAGGTGCCACCATGGCATGCCACGTCAGCCGGAGTCACCTAGTGCAG”: the binding signal is 61500 fluorescence intensity (a.u.).
For the sequence “GCTGCACCTGTTGTGGTGCCATCATCTGTTCCTATGCCTTCGGAGTCACCTAGTGCAG”, the binding signal was 3180 fluorescence intensity (a.u.).
With “GGTTGGGTGAGTGACTCATCCAGCCGTGTGTATGTACAAACGGAGTCACCTAGTGCAG”, the binding signal was 7000 fluorescence intensity (a.u.).
As to “GCACCTGCTGCAAGCCACCCAGGCTATGGTCAGCAGCAGTCGGAGTCACCTAGTGCAG”, the binding signal is 3480 fluorescence intensity (a.u.).
The same measure for “TTGCGGACCACATTAACTCCACTCCACGCGTACATCCAGCCGGAGTCACCTAGTGCAG”: 5280 fluorescence intensity (a.u.).
For “TTTCTATGAAAAGACGATGACATGGACGATGATGTGTACGCGGAGTCACCTAGTGCAG”, the binding signal was 8180 fluorescence intensity (a.u.).
For the sequence “TGCGCAACTTGCCAACTTCTCAAGATTTTGATATAGGGTGCGGAGTCACCTAGTGCAG”, the binding signal was 16700 fluorescence intensity (a.u.).
Take “TTTACTTTAGTGCTACGTAAGCGCCACGTCGATGCACATACGGAGTCACCTAGTGCAG”: the binding signal is 10000 fluorescence intensity (a.u.).
For the sequence “CTTGCTGCAAGCAACCAAGAAGTCACACCCACGTGGAGAACGGAGTCACCTAGTGCAG”, the binding signal is 5130 fluorescence intensity (a.u.).

For the origin of these results see PMC7819943, “Rice protein-binding microarrays: a tool to detect cis-acting elements near promoter regions in rice”.
